Binding data for 4 substances are collected here from publication PMC9568463.

Protein sequences, listed by entry. Tags and fused reporters are not part of them.
UniProt O95714: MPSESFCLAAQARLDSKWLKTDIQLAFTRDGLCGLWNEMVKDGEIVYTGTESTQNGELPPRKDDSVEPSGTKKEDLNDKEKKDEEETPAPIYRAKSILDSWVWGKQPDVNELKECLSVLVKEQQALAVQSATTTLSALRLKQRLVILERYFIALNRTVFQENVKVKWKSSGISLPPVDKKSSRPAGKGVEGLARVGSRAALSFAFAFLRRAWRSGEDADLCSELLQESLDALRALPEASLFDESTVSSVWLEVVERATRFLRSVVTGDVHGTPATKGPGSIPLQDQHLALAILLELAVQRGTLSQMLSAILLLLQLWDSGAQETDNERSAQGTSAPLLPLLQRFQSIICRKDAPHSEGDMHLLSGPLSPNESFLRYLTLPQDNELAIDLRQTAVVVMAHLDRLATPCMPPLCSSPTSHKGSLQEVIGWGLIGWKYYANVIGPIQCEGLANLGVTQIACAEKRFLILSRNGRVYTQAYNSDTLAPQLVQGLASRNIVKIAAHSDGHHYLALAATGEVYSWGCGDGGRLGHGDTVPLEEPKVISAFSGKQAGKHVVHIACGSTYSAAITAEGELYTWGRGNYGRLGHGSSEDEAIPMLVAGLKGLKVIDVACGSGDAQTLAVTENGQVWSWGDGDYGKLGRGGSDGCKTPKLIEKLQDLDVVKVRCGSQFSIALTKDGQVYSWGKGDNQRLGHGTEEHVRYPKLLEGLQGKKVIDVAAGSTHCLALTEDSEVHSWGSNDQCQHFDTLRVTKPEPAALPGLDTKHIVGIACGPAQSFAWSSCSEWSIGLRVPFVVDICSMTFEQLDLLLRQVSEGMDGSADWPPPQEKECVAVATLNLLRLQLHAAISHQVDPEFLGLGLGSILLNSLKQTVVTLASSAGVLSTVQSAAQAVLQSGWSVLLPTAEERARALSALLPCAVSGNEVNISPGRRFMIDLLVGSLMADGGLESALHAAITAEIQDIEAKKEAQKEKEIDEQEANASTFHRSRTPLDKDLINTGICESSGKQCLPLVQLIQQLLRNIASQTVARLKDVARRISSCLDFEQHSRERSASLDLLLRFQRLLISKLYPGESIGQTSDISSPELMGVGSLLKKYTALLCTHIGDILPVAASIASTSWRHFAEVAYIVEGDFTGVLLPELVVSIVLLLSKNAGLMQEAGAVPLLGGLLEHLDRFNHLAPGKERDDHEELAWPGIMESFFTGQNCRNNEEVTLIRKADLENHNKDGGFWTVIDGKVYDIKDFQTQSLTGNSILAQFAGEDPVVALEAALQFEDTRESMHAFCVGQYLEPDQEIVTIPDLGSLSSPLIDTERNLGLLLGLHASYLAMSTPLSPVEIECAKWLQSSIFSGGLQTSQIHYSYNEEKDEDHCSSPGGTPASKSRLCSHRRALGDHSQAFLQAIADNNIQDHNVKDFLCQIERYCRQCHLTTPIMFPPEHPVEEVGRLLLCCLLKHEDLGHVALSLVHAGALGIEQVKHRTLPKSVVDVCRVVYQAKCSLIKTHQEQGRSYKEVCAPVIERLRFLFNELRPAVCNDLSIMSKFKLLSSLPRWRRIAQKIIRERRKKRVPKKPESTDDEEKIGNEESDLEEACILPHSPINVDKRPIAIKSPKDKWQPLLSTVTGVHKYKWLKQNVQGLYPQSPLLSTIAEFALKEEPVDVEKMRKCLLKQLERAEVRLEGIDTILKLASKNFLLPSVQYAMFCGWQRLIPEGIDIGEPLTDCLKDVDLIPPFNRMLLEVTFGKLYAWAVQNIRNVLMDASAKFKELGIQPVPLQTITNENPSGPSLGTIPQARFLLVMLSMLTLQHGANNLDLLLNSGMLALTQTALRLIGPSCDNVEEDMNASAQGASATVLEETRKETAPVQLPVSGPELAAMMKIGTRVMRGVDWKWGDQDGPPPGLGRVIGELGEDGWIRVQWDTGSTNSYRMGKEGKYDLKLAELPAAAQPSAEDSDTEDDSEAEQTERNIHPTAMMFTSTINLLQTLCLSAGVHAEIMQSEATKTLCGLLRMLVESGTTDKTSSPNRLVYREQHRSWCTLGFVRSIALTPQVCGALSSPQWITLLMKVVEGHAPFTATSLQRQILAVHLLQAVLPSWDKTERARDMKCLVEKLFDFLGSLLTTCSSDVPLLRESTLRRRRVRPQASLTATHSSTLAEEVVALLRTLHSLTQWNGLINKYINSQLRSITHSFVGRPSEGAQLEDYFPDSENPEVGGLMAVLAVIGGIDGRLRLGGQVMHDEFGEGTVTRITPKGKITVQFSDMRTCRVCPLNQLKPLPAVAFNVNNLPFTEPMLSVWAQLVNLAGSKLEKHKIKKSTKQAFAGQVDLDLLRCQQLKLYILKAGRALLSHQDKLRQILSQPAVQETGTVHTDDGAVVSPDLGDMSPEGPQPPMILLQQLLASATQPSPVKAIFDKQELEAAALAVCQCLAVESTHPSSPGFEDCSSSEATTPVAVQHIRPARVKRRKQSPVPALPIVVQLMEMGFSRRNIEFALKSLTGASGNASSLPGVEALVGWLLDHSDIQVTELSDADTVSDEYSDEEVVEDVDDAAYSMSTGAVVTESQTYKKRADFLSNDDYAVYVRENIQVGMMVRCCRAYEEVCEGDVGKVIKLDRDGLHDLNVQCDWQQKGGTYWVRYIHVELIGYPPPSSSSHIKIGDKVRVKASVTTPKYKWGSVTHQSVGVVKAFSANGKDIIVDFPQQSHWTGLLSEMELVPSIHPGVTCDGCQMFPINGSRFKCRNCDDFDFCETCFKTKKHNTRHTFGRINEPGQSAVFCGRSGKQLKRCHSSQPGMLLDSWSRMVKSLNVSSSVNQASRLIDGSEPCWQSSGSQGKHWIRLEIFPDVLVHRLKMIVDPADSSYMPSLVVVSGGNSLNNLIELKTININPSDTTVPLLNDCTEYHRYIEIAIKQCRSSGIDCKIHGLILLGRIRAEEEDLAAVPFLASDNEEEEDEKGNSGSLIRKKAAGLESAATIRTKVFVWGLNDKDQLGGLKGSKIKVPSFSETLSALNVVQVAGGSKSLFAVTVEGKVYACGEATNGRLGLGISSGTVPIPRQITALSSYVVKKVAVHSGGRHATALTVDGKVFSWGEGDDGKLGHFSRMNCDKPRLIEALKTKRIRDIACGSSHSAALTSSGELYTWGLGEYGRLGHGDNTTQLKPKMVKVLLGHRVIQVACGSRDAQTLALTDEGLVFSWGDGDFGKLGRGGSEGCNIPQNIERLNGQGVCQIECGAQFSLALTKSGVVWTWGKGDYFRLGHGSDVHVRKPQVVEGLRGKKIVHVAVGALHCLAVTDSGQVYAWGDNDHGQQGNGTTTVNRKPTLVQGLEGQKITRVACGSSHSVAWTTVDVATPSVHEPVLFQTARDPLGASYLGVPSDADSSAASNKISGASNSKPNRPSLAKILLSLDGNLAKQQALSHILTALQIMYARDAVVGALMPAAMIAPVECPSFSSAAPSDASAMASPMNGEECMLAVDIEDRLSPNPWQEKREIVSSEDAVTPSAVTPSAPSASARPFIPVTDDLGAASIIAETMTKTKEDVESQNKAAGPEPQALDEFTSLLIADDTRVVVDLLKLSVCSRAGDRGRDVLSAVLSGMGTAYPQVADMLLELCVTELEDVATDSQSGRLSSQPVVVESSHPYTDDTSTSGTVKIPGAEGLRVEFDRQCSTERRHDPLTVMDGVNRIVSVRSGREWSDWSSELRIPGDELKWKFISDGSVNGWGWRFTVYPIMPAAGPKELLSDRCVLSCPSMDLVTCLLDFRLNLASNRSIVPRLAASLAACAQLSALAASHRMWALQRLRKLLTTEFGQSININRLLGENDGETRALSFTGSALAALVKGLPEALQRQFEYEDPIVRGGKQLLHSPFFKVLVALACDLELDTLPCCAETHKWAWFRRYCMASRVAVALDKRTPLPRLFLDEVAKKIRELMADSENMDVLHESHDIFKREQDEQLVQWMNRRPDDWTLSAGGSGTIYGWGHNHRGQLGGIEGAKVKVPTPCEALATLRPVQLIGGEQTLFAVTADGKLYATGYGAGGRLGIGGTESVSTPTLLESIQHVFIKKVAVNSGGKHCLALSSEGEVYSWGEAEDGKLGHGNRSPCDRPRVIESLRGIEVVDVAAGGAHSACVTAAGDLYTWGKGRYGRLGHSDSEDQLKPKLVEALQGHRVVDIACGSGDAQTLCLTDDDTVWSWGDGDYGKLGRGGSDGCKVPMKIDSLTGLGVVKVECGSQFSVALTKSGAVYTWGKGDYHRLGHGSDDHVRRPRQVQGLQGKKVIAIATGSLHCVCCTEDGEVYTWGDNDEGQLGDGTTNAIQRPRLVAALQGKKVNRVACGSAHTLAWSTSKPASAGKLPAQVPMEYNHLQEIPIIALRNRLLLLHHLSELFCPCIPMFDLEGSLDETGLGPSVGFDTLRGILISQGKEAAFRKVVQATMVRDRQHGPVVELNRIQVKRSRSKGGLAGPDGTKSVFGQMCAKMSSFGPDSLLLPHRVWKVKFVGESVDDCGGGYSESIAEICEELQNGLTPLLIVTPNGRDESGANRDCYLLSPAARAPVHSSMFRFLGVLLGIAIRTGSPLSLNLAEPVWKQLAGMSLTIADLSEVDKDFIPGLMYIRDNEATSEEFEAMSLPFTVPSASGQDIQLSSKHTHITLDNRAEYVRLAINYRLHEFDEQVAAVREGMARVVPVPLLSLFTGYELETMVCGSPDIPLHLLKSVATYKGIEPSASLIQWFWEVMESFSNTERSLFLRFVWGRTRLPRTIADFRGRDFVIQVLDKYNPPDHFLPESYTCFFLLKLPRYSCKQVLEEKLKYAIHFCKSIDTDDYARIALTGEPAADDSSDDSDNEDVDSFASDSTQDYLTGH
UniProt P15056: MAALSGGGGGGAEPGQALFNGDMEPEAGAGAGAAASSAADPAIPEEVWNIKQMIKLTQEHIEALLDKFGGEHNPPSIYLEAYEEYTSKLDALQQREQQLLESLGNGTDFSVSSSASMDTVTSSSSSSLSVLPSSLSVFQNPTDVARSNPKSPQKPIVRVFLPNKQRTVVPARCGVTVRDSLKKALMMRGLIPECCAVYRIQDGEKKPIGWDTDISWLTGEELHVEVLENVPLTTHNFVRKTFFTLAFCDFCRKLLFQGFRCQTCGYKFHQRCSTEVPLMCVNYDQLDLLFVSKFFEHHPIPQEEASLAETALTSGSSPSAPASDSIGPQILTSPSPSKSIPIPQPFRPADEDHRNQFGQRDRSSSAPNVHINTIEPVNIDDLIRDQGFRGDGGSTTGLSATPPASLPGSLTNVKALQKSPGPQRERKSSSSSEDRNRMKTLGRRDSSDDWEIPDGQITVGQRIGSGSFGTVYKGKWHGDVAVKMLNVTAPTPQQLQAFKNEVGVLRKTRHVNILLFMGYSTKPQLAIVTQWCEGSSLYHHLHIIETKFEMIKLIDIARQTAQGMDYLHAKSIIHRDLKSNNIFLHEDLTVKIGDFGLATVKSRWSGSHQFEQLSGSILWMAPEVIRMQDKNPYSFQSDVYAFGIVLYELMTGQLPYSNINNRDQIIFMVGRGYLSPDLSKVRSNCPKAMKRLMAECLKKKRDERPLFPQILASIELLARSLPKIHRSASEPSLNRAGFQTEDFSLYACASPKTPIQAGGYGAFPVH

These are yes or no findings as the source states them, for the method shown. In cells and extracts the contact can be indirect. Some entries that bind do so weakly or less than the wild type.

In experiment [1] the target is HERC2 (HECT and RCC1-like domain 2), endogenous (human (endogenous in U2OS and HEK 293T)) (UniProt O95714). Briefly: co-IP; U2OS lysates in CHAPS buffer (10 mM Tris-HCl pH 7.5, 100 mM NaCl, 0.3% CHAPS); anti-HERC2 polyclonal antibody bvg3, 2 h at 4 °C, protein A-Sepharose; pre-immune serum as negative control; immunoblot of endogenous proteins.
The target is the same in experiment [2]. Briefly: co-IP; HEK 293T lysates in CHAPS buffer (10 mM Tris-HCl pH 7.5, 100 mM NaCl, 0.3% CHAPS); anti-HERC2 polyclonal antibody bvg3, 2 h at 4 °C, protein A-Sepharose; pre-immune serum as negative control; immunoblot of endogenous proteins.
The target in experiment [3] is GFP-C-RAF fusion protein, full-length (UniProt P04049). Description: pull-down; GFP pull-down: lysates of co-transfected HEK 293T cells incubated with GFP-TrapA (ChromoTek) for 2 h at 4 °C, washed five times with CHAPS buffer; GFP fusion held on the beads; immunoblot.

For “HERC1, endogenous (from UniProt Q15751 1-4861)”, the binding entry in experiment [1] and in experiment [2] was “no binding” in each case.

“C-RAF, endogenous (from UniProt P04049 1-648)”: the binding entry in experiment [1] and in experiment [2] was “binds” throughout.

In the case of “Flag-HERC2 full-length fusion protein (from UniProt O95714 1-4834)”, in experiment [3], the binding entry is given as “binds”.

For “B-RAF, endogenous (from UniProt P15056 1-766)”, the binding entry in experiment [1] and in experiment [2] was “binds” throughout.
